From patent publication US20140363377A1
Results are given in words; binding and its absence hold for the method and conditions named. Some entries that bind do so weakly or less than the wild type.

Amino acid sequences for entries named in this document (tags omitted).
UniProt Q14790: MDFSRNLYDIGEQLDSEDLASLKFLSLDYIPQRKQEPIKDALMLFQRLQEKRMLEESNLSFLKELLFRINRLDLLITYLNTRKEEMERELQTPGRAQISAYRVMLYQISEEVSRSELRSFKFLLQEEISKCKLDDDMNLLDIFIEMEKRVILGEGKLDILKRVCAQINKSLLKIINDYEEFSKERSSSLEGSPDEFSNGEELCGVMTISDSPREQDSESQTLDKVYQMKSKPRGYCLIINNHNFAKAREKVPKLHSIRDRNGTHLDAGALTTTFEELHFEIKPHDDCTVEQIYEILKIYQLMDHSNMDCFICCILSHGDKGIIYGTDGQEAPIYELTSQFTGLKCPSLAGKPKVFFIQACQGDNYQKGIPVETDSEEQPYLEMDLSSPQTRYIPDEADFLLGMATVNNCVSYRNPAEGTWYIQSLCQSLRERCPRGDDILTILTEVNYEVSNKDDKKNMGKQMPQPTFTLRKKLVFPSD

Biological target: Procaspase 8, endogenous, in human cancer cell lysates (human) (UniProt Q14790)
Test: immunoprecipitation with anti-histidine tag or anti-Caspase 8 antibody

B1: truncated SPARC polypeptide comprising a sequence near the SPARC amino terminus (SEQ ID NO: 20) (protein)
chain: APQQEALPDETEVVEETVAEVTEVSVGANPVQVEVGEFDDGAEETEEEVVA
With B1 the binding was “binds”.
